Measured values as given in patent US10450260B2, “NO- and H2S-releasing compounds” (RESEARCH FOUNDATION OF THE CITY UNIVERSITY OF NEW YORK, priority 2011, dated 2019).

How the values were obtained:
[1] = system: Jurkat T cell human leukemia; experiment: MTT cell growth inhibition, Jurkat; assay type: cell-based; settings: 24 hours (Table 7)
Method: (§1) HT-29, SW-480 and HCT-15 human colon adenocarcinoma, MIA PaCa-2 and BxPC-3 human pancreatic cancer, LNCAP human prostate cancer, A549 human lung cancer, MCF-7 (estrogen receptor positive), MDA-MB 231 and SK-BR-3 (estrogen receptor negative) human breast cancer, and Jurkats human leukemia cell lines were obtained from American Type Tissue Collection (Manassas, Va.). All cells lines were grown as monolayers except for the Jurkats which were grown in suspension. […] Single cell suspensions were obtained by trypsinization (0.05% trypsin/EDTA), and cells were counted using a hemocytometer. Viability was determined by the trypan blue dye exclusion method.
(§2) Cell growth inhibitory effect of NOSH compounds were measured using a colorimetric MTT assay kit (Roche, Indianapolis, Ind.). […] The absorbance of the plates was measured on an ELISA reader at a wavelength of 570 nm. […]
(§3) HT-29, SW-480 and HCT-15 human colon adenocarcinoma, MIA PaCa-2 and BxPC-3 human pancreatic cancer, LNCAP human prostate cancer, A549 and H383 human lung cancer, MCF-7, MDA-MB 231 and SK-BR-3 human breast cancer and Jurkat T cell human leukemia cell lines were obtained from American Type Tissue Collection (Manassas, Va.) All cells lines were grown as monolayers except for the Jurkat T cells which were grown as suspension culture. […] Viability was determined by the trypan blue dye exclusion method. […]

[2] = system: HCT-15 human colon adenocarcinoma; experiment: MTT cell growth inhibition, HCT15; assay type: cell-based; settings: 24 hours (Table 7)
Method: as §1, §2, §3

TNF-α = experiment: Plasma TNF-α enzyme immunoassay; assay type: in vivo, rat; settings: rats, equimolar oral doses: ASA 180 (1 mmol/kg), NOSH-ASA 477, naproxen 80, NOSH-naproxen 188, sulindac 200, NOSH-sulindac 467 mg/kg; control 11±0.3
Method: Fresh samples of blood from the animals were taken by cardiac puncture into heparin-containing vials. The determination of plasma TNF-α was carried out by an enzyme immunoassay kit from R&D systems (Minneapolis, Minn.). Briefly, each sample (50 μL) was incubated with antibodies specific for rat TNF-α and washed three times with assay buffer. An enzyme-linked polyclonal antibody specific for rat TNF-α conjugated to horseradish peroxidase was then added to the wells. Following washing of unbound antibody-enzyme reagent, a substrate solution (containing tetramethylbenzidine, TMB, plus hydrogen peroxide) was added to the wells. […] The intensity of the color was determined by measuring the OD of the yellow color in a standard ELISA plate reader at 450 nm. Sensitivity of this TNF-α assay was determined by adding two standard deviations to the mean optical density value of 20× zero standard replicates and calculating the corresponding concentration. […] The results are expressed as pg/mL. […]
This was done by an enzyme immunoassay kit from R&D systems (Minneapolis, Minn.) following the protocol described by the manufacturer. […] The intensity of this was measured at 450 nm. Sensitivity of this TNF-α assay was determined by adding two standard deviations to the mean optical density value of 20× zero standard replicates and calculating the corresponding concentration. […]

## COc1ccc2cc([C@H](C)C(=O)O)ccc2c1 [naproxen, reference compound]
[1]
  IC50: 2550 µM
[2]
  IC50: 2850 µM
TNF-α
  plasma TNFα concentration: 150 ± 2 pg/mL
